Assay results as given in patent US20160207973A1.
Results are given in words; binding and its absence hold for the method and conditions named. Some binding calls cover weakened binding; strength is not graded here. Sequences can lack the tags named with a protein.

Amino acid sequences for entries named in this document (tags omitted). A change or cut given only in a name is not applied to a line headed by its entry.
UniProt P12643: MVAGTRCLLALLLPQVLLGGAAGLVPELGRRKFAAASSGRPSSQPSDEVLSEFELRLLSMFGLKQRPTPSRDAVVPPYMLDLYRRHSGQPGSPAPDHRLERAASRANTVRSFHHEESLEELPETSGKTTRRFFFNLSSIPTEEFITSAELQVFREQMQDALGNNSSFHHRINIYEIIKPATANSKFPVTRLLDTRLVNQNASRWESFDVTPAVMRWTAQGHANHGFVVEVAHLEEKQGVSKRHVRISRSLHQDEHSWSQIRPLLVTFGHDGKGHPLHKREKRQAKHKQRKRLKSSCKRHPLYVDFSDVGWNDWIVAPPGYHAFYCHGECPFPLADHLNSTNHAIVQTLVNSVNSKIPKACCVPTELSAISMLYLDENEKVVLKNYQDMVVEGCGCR
UniProt P22004: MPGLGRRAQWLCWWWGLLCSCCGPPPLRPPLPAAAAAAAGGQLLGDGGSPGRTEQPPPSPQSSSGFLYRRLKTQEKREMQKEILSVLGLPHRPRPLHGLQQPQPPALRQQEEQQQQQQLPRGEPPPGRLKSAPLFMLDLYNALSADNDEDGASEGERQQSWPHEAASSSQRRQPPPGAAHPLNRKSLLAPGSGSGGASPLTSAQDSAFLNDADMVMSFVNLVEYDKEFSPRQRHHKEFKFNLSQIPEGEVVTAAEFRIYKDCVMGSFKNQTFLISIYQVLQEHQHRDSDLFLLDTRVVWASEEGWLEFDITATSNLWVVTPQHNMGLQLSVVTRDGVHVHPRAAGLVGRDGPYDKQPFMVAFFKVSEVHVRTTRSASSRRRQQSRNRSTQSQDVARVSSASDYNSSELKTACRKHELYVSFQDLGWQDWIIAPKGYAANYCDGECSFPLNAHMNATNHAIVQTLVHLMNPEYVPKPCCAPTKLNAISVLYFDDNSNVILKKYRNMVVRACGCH

Assays:
Assay in all cases: BLI (Octet), receptor-Fc on anti-human IgG tips
[1] = biological target: T1, ALK6 receptor-human-IgG1-Fc fusion protein (human) (UniProt O00238)
T1 sequence (looked up): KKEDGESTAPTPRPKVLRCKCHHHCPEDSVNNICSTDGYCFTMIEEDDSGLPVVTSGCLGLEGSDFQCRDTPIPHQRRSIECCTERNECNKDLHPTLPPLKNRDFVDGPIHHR

[2] = biological target: T2, ActRIIB receptor-human-IgG1-Fc fusion protein (human) (UniProt Q13705)
T2 sequence (looked up): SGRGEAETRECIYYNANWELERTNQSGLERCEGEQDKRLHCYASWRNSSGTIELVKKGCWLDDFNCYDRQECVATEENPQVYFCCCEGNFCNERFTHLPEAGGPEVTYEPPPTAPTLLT

[3] = biological target: T3, BMPRII receptor-human-IgG1-Fc fusion protein (human) (UniProt Q13873)
T3 sequence (looked up): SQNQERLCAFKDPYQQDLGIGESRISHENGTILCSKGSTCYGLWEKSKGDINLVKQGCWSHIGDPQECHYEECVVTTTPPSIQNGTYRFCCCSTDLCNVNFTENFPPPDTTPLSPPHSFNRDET

binding [1] | binding [2] | binding [3] | Substance
binds |  |  | wild type BMP2/6 heterodimer (from UniProt P12643 283-396; P22004 375-513) (ligand)
 | binds | binds | wild type BMP6 homodimer (from UniProt P22004 375-513) (ligand)
binds |  |  | wild type BMP2 homodimer (from UniProt P12643 283-396) (ligand)
